Source: paper PMC5995921

Biological target: T1, VE-cadherin (human (endogenous in HUVEC)) (UniProt P33151)
T1 sequence: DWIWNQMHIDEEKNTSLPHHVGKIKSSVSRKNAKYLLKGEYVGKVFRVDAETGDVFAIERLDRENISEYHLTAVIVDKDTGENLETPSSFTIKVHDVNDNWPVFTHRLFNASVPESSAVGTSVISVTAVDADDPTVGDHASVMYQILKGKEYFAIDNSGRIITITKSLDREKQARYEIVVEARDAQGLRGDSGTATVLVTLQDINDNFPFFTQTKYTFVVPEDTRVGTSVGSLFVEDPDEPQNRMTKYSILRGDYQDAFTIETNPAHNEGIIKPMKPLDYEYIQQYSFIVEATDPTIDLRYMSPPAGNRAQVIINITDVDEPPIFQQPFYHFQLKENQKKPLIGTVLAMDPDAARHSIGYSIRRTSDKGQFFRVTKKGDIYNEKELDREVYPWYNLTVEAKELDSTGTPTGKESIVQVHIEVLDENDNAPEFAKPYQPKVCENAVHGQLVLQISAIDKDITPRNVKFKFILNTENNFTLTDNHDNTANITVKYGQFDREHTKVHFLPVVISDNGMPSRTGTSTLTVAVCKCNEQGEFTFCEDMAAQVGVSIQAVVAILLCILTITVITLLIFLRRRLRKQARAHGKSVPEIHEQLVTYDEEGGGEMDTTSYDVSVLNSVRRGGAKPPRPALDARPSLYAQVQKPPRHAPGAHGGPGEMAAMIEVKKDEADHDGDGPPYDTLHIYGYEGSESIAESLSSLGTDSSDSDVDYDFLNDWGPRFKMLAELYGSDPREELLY
Assay: co-IP; HUVECs untreated or treated with Caov-3-derived exosomes (25 μg/mL); lysates (1 mg) immunoprecipitated with anti-VE-cadherin; blotted with anti-E-cadherin and anti-VE-cadherin

- binding: binds
Substance: soluble E-cadherin (sE-cad) on Caov-3-derived exosomes (human (endogenous in Caov-3))

Results are given in words; binding and its absence hold for the method and conditions named. In cells and extracts the contact can be indirect. Binding can be weak; no strength is given.
